The experiment concerns the target T1, ADGRL1 construct vL-Lm (latrophilin-1) on NB2a cells (UniProt O88917).
T1 sequence: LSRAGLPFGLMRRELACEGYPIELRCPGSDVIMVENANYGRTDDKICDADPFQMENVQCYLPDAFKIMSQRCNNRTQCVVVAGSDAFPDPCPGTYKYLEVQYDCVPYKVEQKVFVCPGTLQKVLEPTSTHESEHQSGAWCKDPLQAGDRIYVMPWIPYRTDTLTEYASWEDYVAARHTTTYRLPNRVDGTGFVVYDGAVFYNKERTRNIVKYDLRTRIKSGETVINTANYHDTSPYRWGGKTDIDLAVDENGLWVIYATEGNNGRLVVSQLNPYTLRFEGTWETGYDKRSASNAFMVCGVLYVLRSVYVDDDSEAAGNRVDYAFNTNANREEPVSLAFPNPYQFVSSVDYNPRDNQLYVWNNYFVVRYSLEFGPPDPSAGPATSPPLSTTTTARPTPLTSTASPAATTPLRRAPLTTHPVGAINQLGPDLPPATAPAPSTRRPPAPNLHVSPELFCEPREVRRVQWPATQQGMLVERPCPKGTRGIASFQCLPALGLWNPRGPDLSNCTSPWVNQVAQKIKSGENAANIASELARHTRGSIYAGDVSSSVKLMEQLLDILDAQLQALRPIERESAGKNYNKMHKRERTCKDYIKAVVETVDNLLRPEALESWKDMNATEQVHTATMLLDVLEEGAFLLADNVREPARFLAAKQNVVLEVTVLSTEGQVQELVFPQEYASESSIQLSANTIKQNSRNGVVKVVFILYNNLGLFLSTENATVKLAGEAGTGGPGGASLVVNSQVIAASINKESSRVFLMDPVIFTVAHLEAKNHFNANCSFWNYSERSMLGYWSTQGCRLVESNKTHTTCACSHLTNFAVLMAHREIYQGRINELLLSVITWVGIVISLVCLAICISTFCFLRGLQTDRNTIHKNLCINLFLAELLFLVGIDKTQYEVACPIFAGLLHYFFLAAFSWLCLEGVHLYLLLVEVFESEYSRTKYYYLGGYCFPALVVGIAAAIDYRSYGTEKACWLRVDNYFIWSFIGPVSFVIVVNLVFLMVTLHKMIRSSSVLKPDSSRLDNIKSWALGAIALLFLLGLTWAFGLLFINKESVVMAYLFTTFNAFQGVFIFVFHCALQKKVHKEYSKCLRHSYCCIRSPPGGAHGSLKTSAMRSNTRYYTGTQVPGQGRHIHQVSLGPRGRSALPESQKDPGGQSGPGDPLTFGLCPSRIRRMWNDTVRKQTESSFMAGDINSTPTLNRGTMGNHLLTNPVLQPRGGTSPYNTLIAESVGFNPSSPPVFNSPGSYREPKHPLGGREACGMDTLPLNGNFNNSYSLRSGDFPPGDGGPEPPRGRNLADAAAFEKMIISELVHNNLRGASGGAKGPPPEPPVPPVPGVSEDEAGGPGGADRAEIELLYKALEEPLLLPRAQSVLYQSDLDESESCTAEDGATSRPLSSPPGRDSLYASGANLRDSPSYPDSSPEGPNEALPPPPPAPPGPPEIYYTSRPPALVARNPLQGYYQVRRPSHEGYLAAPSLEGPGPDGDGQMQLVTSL
The experiment is described as follows: toxin binding to cells, centrifugation and immunoblot; only the binder purified.

These are yes or no findings as the source states them, for the method shown. Some results given as binding are weak or reduced against the parent protein; the word gives no strength.

B1: α-Latrotoxin (ligand, UniProt P23631 21-1199)
chain: EGEDLTLEEKAEICSELELQQKYVDIASNIIGDLSSLPIAGKIAGTIAAAAMTATHVASGRLDIEQTLLGCSDLPFDQIKEVLENRFNEIDRKLDSHSAALEEITKLVEKSISVVEKTRKQMNKRFDEVMKSIQDAKVSPIISKINNFARYFDTEKERIRGLKLNDYILKLEEPNGILLHFKESRTPTDDSLQAPLFSIIEEGYAVPKSIDDELAFKVLYALLYGTQTYVSVMFFLLEQYSFLANHYYEKGYLEKYDEYFNSLNNVFLDFKSSLVGTGTSNNEGLLDRVLQVLMTVKNSEFLGLEKNGVDEMLNEKINLFNKIKEEIEGKQKMTLSETPENFAQISFDKDITTPIGDWRDGREVRYAVQYASETLFSKISHWSDPVSVREKACPTLRMPVDQTRRNVLVFRKFDSSKPQLVGEITPYLSNFIDIDRDLYNAASNPDSAVGFKEFTKLNYDGANIRATFDHGRTVFHAAAKSGNDKIMFGLTFLAKSTELNQPDKKGYTPIHVAADSGNAGIVNLLIQRGVSINSKTYHFLQTPLHLAAQRGFVTTFQRLMESPEININERDKDGFTPLHYAIRGGERILEAFLNQISIDVNAKSNTGLTPFHLAIIKNDWPVASTLLGSKKVDINAVDENNITALHYAAILGYLETTKQLINLKEINANVVSSPGLLSALHYAILYKHDDVASFLMRSSNVNVNLKALGGITPLHLAVIQGRKQILSLMFDIGVNIEQKTDEKYTPLHLAAMSKYPELIQILLDQGSNFEAKTNSGATPLHLATFKGKSQAALILLNNEVNWRDTDENGQMPIHGAAMTGLLDVAQAIISIDATVVDIEDKNSDTPLNLAAQNSHIDVIKYFIDQGADINTRNKKGLAPLLAFSKKGNLDMVKYLFDKNANVYIADNDGMNFFYYAVQNGHLNIVKYAMSEKDKFEWSNTDNNRRDECPNEECAISHFAVCDAVQFDRIEIVKYFVGTLGNFAICGPLHQAARYGHLDIVKYLVEEEFLSVDGSKTDTPLCYASENGHFTVVQYLVSNGAKVNHDCGNGMTAIDKAITKNHLQVVQFLAANGVDFRRKNSRGTTPFLTAVAENALHIAEYLIREKRQDININEQNVDKDTALHLAVYYKNLQMIKLLIKYGIDVTIRNAYDKTALDIAIDAKFSNIVEYLKTKSGKFRR
For the molecule B1, the binding result was “binds”.

Source of the values: paper PMC12300799.
